Screening data, single-dose tests

Source: ChEMBL document CHEMBL3988442, “University of Dundee, Small-Polar-MMV Screening Library” (2021).

Each number is a percent effect as filed. The record does not define 0% and 100%; most values in the screen are far below 50% and negative numbers occur (in some assays of this library far below -100). This is an unselected part of the compounds tested. Two or more numbers in one place are separate tests of the same structure; such repeats can differ widely.

A: 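Growth of Mycobacterium tuberculosis over 3 days (7H9 medium with glucose and tyloxapol); the read-out is not stated. Concentration: 50 µM. Direction is inferred from retests: higher values go with more growth inhibition. Size under these conditions: about 69,000 compounds, about 760 of them at 50% or above in at least one test.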
B: 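Whole-cell growth test on Mycobacterium tuberculosis, read after 4 days in a medium based on cholesterol and the lipid DPPC; the read-out is not stated. Tested at 50 µM. Direction is inferred from retests: higher values go with more growth inhibition. Of about 69,000 compounds tested this way, about 370 (0.54%) reached 50% or more in at least one test.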

For Cc1ccc(C(=O)N2CCC3(CC2)CC(c2ccccc2)C(=O)N3)cn1.O=C(O)C(F)(F)F (centres unmarked) the result was A: -1.028%; B: -18.48%. For Cc1cc(C(=O)NCC2SCCc3ccccc32)no1 (centres unmarked) the result was A: 56.27%; B: 40.04%. CN(CCNS(C)(=O)=O)CC(c1cccs1)N1CCOCC1 (centres unmarked) gave A: 6.093% and 0.7194%; B: -0.3963%. Cc1nc(C)n(CC2CN(Cc3cccc(C#N)c3)CCO2)n1 (centres unmarked) read A: 2.354%; B: -6.275%. For CSCC[C@@H](CO)n1ccnc1-c1ccncc1 the result was A: -32.68% and -7.531%; B: -16.16%. Cn1ccnc(Sc2cccc(C#N)c2)c1=O read A: 9.304%; B: 15.88%. O=C(O)C(F)(F)F.[H][C@@]12C[C@H](C(=O)NCCN(C)C)[C@@]([H])(CN(C(=O)NCc3ccccc3)C1)O2 gave A: -15.96%; B: -1.399%. Cc1cc(=O)n(C)cc1NC(=O)Cc1cccc(Cl)c1 gave A: 26.59%; B: 11.81%.

With CN1CCCC2(C1)CN(C(=O)C1CCCCC1)CCO2 (centres unmarked) the screen gave A: -4.2%; B: 6.028%. With [H][C@@]12CCN(C(=O)Cc3ccco3)C[C@]1([H])OCCNC2=O the screen gave A: 10.91%; B: -16.67%. Cc1cccc(CN2CCC3(CC2)CC(Oc2cccnc2)C3)n1.O=C(O)C(F)(F)F.O=C(O)C(F)(F)F read A: 12.25% and 4.862%; B: 1.746%. With Oc1cc(-c2ccsc2)nc(C2CCN(Cc3cccnc3)CC2)n1 the screen gave A: 15.36%; B: 22.06%. COCC(=O)NC[C@@]1(COc2cnccn2)C[C@@H](O)[C@@H](O)C1.Cl gave A: 2.167% and -9.803%; B: 10.84%. With CNS(=O)(=O)CC1CCCN1c1ccc(Cl)cn1 (centres unmarked) the screen gave A: -29.18%; B: -1.666%. For Cc1noc(C)c1Cc1nc(N(C)C)no1 the result was A: -18.94% and -1.311%; B: 20.08%. For Cc1oc(NC(=O)C(C)N2CCN(CCO)CC2)c(C#N)c1C (centres unmarked) the result was A: 12.03%; B: -20.37%.

With Cc1nc2ccccc2c(=O)n1CCC(=O)N1CCCC1 the screen gave A: 8.497%; B: -20.93%. With Cc1cc(C)n(C2CCN(C(=O)c3cn4ccsc4n3)C2)n1 (centres unmarked) the screen gave A: 10.01% and 3.092%; B: 15.53%. For N#Cc1ccc(CN(CCF)Cc2cccc(F)c2)cc1 the result was A: 3.037%; B: -16.68%. Result for O=C(NC[C@H]1OC[C@@H](NCc2ccccc2)[C@@H]1O)Nc1ccc(F)cc1 was A: -8.751% and -6.282%; B: -22.38%. O=c1c2cn[nH]c2nc(SCCN2CCCC2)n1-c1ccccc1 read A: -0.511% and -7.516%; B: -3.828%. With O=C(O)C(F)(F)F.O=C1NCC[C@]12CN(CC1CCOCC1)C[C@H]2c1ccccc1 the screen gave A: 19.77%; B: 13.82%. For CNS(=O)(=O)c1ccc(CNC(=O)C2CN(C)CCO2)cc1 (centres unmarked) the result was A: -28.46%; B: -17.07%. CC(C)(C)n1ncc2c1NC(=O)CSC2c1ccc2c(c1)OCCO2 (centres unmarked) gave A: 20.35%; B: 9.564%.

Some entries from above, unchanged:

- Cc1cc(C(=O)NCC2SCCc3ccccc32)no1 (centres unmarked) | A: 56.27%; B: 40.04%
- [H][C@@]12CCN(C(=O)Cc3ccco3)C[C@]1([H])OCCNC2=O | A: 10.91%; B: -16.67%